Laboratory results from patent US20160304610A1 (JOUNCE THERAPEUTICS, published 2016).
These are yes or no findings as the source states them, for the method shown. Some results given as binding are weak or reduced against the parent protein; the word gives no strength. Where a sequence is shown, tags or fusion partners need not be part of it.

Molecular target: T1, ICOSL
T1 sequence: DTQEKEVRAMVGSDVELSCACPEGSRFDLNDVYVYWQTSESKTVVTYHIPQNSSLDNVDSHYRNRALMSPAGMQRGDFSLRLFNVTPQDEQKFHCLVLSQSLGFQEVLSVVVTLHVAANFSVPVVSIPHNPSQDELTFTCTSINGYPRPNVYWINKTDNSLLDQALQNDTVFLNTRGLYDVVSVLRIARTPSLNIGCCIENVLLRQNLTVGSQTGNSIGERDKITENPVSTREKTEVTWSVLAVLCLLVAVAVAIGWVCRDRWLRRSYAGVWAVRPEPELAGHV
Experiment: flow cytometry of cynomolgus whole blood, DyLight 650 labeled cynoICOS-Fc on viable CD3- CD20+ B cells, MFI normalised to vehicle at each time point; used by the filing to measure ICOSL expression

B1: cynomolgus ICOS-Fc (homodimeric, bivalent) (Fc fusion, not shown: a dimerising Fc or GST)
chain: EINGSANYEMFIFHNGGVQILCKYPDIVQQFKMQLLKGGQILCDLTKTKGSGNKVSIKSLKFCHSQLSNNSVSFFLYNLDRSHANYYFCNLSIFDPPPFKVTLTGGYLHIYESQLCCQLK
binding: binds
